Reference: patent publication US9981005
These are yes or no findings as the source states them, for the method shown. Some entries that bind do so weakly or less than the wild type.

The chains behind the UniProt entries cited, without tags or fusion partners. Where a name states a change or a piece, a line headed by the entry shows the natural chain unless it says otherwise.
UniProt F1MNN4: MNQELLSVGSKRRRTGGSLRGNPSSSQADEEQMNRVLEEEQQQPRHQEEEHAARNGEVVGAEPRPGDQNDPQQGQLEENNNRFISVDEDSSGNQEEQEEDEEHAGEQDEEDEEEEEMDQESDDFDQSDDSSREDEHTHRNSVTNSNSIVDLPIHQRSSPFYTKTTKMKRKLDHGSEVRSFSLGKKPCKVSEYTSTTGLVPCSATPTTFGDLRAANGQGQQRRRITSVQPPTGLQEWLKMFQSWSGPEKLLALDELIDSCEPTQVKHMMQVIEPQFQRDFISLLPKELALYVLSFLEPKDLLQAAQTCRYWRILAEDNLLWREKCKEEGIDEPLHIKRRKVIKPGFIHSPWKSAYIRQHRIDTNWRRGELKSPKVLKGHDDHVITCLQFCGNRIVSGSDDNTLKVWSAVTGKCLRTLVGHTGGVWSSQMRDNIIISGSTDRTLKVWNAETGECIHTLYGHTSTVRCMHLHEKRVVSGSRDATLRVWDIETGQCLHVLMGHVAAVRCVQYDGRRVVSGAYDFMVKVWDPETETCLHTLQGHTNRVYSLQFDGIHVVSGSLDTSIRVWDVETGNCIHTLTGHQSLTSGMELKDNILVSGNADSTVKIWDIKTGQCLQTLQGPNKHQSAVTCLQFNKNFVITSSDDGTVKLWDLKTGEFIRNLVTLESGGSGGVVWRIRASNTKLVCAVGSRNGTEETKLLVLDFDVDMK

The binders below were run against FBXW7 (F-box/WD repeat-containing protein 7) (Bos taurus (Bovine)) (UniProt F1MNN4) (assay: peptide binding screen against FBXW7 (truncation/substitution panels)).

| Binder | binding |
| --- | --- |
| GAPPGEH (6: N-methyl-Glu) [A22 G-A-P-P-G-mE-H] | binds |
| GDPPGE (2: N-methyl-Asp; 6: N-methyl-Glu) [A45 G-mD-P-P-G-mE] | binds |
| GDPPQEH (2: N-methyl-Asp; 6: N-methyl-Glu) [A52 G-mD-P-P-Q-mE-H] | binds |
| LDPPGEH (2: N-methyl-Asp; 6: N-methyl-Glu) [A58 L-mD-P-P-G-mE-H] | binds |
| PAPPGEH (6: N-methyl-Glu) [A82 P-A-P-P-G-mE-H] | binds |
| PAPPGDH (6: N-methyl-Asp) [A102 P-A-P-P-G-mD-H] | binds |
| PEPPGD (6: N-methyl-Asp) [A144 P-E-P-P-G-mD] | binds |
| PEPPQDH (6: N-methyl-Asp) [A151 P-E-P-P-Q-mD-H] | binds |
| PPGEH (4: N-methyl-Glu) [A189 P-P-G-mE-H] | binds |

The binders below were run against FBXW7 (F-box/WD repeat-containing protein 7) (Bos taurus (Bovine)) (UniProt F1MNN4) (assay: peptides immobilised on membranes, screened for FBXW7 binding).

| Binder | binding |
| --- | --- |
| GPEVPPTPPGSHSAFTSSFSFIRL [24-mer DISC1 peptide …] | binds |
| GPEVPPTPPGSHSAFTSSFSFIRL (phosphothreonine at Thr198 (position 7 of the peptide)) [24-mer DISC1 peptide … phosphorylated at Thr198] | binds |
| GPEVPPTPPGSHSAFTSSFSFIRL (phosphoserine at Ser202 (position 11 of the peptide)) [24-mer DISC1 peptide … phosphorylated at Ser202] | binds |
| GPEVPPTPPGSHSAFTSSFSFIRL (phosphothreonine at Thr198 (position 7); phosphoserine at Ser202 (position 11)) [24-mer DISC1 peptide … phosphorylated at Thr198 and Ser202] | binds |

Each binder was assayed against FBXW7 (F-box/WD repeat-containing protein 7) (Bos taurus (Bovine)) (UniProt F1MNN4) (assay: peptide binding screen against FBXW7 (substituted 7-mer panel)).

| Binder | binding |
| --- | --- |
| PEPPGDH (6: N-methyl-Asp) [Peptide 64: P-E-P-P-G-mD-H] | binds |
| GEPPGEH (2: N-methyl-Glu; 6: N-methyl-Glu) [Peptide 139: G-mE-P-P-G-mE-H] | binds |
| GDPPGEH (2: N-methyl-Asp; 6: N-methyl-Glu) [Peptide 142: G-mD-P-P-G-mE-H] | binds |
